Protein sequences, listed by entry. Tags and fused reporters are not part of them.
UniProt Q9UJY4: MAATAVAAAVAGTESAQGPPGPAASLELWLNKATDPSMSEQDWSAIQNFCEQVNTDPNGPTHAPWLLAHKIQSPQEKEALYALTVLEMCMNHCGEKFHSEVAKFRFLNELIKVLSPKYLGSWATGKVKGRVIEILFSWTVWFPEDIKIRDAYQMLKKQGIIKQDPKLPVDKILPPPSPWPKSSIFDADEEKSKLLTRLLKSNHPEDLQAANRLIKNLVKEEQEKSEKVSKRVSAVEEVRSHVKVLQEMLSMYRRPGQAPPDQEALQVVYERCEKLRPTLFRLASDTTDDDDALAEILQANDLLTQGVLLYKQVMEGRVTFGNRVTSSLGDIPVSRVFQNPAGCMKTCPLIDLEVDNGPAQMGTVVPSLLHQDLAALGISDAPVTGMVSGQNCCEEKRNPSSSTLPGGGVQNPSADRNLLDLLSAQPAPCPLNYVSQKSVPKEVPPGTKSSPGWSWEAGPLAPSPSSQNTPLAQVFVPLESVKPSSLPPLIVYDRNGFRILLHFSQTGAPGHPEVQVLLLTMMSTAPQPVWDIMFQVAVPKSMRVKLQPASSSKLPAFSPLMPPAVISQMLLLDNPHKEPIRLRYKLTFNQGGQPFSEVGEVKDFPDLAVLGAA

According to PMC8604998:

Target: epidermal growth factor receptor (EGFR), endogenous in ARPE-19 cells (human (endogenous in ARPE-19)) (UniProt P00533)
Assay: affinity purification with mass spectrometry; ARPE-19 lysate (PBS, 1% Triton X-100), steady-state culture with 10% FBS; sepharose beads conjugated with anti-EGFR or control IgG, 20-24 h at 4 °C, six washes; nLC-MS/MS of the eluate

binding: binds
Substance: Golgi-localized, γ-adaptin ear-containing, ADP ribosylation factor-binding protein 2 (GGA2) (from UniProt Q9UJY4 1-613)

These are yes or no findings as the source states them, for the method shown. In cells and extracts the contact can be indirect. Here binding means that the protein was enriched with, or labelled near, the bait; the list need not be complete.
